Results are given in words; binding and its absence hold for the method and conditions named. In cells and extracts the contact can be indirect. Some binding calls cover weakened binding; strength is not graded here.
Target: caspase-8 (human, endogenous in HT-29) (human (endogenous in HT-29)) (UniProt Q14790)
Assay: co-IP; whole-cell lysates of control and DAPK1-knockdown HT-29 cells treated with zVAD+BV6+TNF (anti-FADD IP) or zVAD+BV6 (anti-caspase-8 IP); Protein G Mag Sepharose, WCE buffer, overnight at 4 °C; Western blot

Protein sequences, listed by entry. Tags and fused reporters are not part of them.
UniProt Q14790: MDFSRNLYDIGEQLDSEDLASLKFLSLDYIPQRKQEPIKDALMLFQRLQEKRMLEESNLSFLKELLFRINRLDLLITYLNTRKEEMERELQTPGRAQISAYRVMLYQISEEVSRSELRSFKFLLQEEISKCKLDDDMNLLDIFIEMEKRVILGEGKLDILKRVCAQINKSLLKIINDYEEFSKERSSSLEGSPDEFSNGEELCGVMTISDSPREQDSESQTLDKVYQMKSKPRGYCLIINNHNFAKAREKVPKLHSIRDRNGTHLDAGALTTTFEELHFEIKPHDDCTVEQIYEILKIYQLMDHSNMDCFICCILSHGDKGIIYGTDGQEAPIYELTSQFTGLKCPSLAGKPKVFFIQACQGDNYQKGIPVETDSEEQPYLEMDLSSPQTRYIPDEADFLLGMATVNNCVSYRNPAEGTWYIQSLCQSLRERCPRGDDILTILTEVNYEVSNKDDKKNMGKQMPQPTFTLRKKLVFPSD

- binding: binds
B1: MLKL (human, endogenous in HT-29) (protein, UniProt Q8NB16 1-471)
chain: MENLKHIITLGQVIHKRCEEMKYCKKQCRRLGHRVLGLIKPLEMLQDQGKRSVPSEKLTTAMNRFKAALEEANGEIEKFSNRSNICRFLTASQDKILFKDVNRKLSDVWKELSLLLQVEQRMPVSPISQGASWAQEDQQDADEDRRAFQMLRRDNEKIEASLRRLEINMKEIKETLRQYLPPKCMQEIPQEQIKEIKKEQLSGSPWILLRENEVSTLYKGEYHRAPVAIKVFKKLQAGSIAIVRQTFNKEIKTMKKFESPNILRIFGICIDETVTPPQFSIVMEYCELGTLRELLDREKDLTLGKRMVLVLGAARGLYRLHHSEAPELHGKIRSSNFLVTQGYQVKLAGFELRKTQTSMSLGTTREKTDRVKSTAYLSPQELEDVFYQYDVKSEIYSFGIVLWEIATGDIPFQGCNSEKIRKLVAVKRQQEPLGEDCPSELREIIDECRAHDPSVRPSVDEILKKLSTFSK

Reference: paper PMC7198492
